The other results are listed elsewhere or left out. Residues, ends and D or L forms follow the SMILES beside them. *: point of attachment. Cbz = O=C(OCc1ccccc1)*
Experiments:
Experiment in all cases: log2 fold change, soluble protein after heating vs DMSO (PISA); higher = thermal stabilisation; K562 cells, 10 uM, 30 min; active = over 0.2 and 3.5 SD of the protein, either way, in both replicates (recomputed)
erlotinib = compound: C#Cc1cccc(Nc2ncnc3cc(OCCOC)c(OCCOC)cc23)c1 [erlotinib]
Summary of the method: (§1)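 For each measurement, 10 μM compound was applied for 30 min to K562 cells at 2×10^6 cells/mL. Aliquots were heated for 3 min across 48°C-58°C, pooled, and extracted in PBS with 0.5% NP-40 at 4°C; the supernatant after 21,000xg for 90 min was soluble protein. This was quantified by TMTpro 16plex LC-MS/MS with channel sums equalised, and thermal stability was reported relative to control samples from duplicates, on a log2 fold-change scale.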

Chains of the proteins cited; added tags and fusions are not shown. Lines headed by an entry give the natural chain unless they say otherwise; changes in a name come on top.
UniProt Q9ULZ3, whole entry, looked up: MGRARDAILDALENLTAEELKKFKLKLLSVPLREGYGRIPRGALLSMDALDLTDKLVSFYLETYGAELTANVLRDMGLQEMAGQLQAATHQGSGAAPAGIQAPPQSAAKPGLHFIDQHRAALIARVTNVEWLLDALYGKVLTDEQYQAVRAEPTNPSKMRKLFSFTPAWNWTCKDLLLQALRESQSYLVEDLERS
UniProt P49023, whole entry, looked up: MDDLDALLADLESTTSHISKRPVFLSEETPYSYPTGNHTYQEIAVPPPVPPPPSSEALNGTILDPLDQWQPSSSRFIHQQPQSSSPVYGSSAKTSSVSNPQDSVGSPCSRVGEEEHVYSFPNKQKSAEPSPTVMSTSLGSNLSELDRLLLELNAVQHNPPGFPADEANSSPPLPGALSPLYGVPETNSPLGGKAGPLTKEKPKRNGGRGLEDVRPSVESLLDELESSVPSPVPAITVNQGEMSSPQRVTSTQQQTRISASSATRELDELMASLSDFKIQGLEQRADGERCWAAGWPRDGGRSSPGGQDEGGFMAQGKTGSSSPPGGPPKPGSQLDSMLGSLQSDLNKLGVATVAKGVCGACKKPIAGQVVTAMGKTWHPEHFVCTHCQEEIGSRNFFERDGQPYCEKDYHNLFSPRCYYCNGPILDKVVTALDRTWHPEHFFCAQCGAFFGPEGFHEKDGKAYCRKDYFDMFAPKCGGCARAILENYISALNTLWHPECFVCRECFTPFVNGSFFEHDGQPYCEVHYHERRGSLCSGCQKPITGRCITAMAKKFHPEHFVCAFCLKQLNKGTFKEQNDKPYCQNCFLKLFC
UniProt Q969U7: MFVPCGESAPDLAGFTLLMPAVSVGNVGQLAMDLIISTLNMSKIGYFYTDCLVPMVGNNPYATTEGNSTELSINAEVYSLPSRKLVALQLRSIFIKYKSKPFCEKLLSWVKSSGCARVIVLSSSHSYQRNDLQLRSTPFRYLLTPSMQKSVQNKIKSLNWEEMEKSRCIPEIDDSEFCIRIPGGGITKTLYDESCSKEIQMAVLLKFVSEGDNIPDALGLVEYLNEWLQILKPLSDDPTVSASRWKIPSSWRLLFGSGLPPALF
UniProt Q96QR8: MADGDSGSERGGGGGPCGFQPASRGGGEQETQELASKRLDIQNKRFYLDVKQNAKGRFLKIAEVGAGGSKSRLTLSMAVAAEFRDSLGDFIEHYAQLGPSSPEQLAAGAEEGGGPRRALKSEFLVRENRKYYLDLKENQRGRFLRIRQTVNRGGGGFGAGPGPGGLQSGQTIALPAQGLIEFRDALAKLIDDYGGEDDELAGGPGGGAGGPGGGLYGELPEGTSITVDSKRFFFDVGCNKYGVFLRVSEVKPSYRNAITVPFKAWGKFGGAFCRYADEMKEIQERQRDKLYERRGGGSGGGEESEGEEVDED
UniProt Q15274: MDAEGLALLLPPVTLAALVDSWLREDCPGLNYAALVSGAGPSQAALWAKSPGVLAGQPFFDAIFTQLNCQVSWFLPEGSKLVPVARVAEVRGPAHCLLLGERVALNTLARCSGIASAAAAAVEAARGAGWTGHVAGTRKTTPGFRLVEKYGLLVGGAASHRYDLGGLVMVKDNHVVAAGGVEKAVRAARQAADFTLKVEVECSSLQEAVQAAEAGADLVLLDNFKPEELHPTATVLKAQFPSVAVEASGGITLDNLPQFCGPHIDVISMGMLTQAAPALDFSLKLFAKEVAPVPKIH
UniProt P28066: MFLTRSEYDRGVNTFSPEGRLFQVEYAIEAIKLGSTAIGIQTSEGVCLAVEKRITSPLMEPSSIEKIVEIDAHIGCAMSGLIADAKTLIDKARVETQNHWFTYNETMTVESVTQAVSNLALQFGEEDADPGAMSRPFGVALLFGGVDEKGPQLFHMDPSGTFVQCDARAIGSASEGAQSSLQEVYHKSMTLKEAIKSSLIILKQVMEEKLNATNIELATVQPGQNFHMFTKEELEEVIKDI
UniProt Q92530: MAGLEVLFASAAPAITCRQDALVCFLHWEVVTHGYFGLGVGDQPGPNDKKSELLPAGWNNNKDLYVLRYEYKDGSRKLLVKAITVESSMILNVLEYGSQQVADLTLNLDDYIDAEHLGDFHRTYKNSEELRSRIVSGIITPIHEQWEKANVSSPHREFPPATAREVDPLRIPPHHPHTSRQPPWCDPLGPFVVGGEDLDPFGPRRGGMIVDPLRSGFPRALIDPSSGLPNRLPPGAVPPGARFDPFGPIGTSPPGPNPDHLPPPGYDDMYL
UniProt Q9H7Z7: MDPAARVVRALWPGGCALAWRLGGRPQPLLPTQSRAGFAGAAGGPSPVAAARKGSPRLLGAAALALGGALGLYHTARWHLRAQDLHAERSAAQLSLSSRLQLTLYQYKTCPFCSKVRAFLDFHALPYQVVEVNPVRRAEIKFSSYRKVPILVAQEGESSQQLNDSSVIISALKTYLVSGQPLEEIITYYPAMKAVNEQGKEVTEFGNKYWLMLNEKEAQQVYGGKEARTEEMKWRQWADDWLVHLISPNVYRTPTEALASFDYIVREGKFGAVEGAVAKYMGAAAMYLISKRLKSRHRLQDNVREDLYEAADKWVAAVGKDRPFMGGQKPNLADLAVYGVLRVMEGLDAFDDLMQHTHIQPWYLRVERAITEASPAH
UniProt O14818: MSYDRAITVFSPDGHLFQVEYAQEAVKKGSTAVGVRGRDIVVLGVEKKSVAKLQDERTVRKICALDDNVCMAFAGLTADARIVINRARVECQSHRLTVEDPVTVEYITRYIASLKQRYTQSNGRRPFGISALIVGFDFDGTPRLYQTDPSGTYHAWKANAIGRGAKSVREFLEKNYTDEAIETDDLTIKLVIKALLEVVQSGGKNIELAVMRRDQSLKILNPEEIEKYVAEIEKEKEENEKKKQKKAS
UniProt P20962: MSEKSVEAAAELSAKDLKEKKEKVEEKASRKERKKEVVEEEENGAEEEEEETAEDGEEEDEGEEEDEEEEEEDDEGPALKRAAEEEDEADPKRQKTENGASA
UniProt P25786: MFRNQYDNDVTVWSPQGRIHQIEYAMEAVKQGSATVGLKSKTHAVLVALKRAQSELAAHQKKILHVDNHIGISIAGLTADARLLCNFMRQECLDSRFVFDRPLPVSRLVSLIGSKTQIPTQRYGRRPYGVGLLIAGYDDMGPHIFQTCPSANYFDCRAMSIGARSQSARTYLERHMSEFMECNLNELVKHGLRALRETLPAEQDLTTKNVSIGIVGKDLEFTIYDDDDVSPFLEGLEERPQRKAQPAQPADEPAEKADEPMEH
UniProt P60900, whole entry, looked up: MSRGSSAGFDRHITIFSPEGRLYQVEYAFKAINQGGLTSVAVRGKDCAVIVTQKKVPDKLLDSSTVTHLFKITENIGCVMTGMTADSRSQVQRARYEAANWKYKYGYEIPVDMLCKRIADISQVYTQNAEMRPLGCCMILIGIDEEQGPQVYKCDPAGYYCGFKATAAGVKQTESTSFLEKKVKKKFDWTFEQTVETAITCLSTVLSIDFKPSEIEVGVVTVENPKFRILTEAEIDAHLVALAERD
UniProt P49720: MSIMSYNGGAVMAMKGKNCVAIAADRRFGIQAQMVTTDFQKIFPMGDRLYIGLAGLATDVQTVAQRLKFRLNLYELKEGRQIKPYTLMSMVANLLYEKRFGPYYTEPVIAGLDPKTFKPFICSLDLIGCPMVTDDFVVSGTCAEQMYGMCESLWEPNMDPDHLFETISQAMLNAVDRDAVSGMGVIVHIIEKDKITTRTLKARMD
UniProt Q06323: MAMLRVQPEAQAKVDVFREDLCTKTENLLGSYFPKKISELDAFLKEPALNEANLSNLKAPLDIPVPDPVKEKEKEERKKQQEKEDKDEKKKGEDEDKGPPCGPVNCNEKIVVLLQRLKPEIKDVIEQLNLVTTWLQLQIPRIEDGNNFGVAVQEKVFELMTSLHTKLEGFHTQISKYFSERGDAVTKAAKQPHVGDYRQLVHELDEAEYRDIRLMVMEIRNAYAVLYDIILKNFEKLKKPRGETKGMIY
UniProt P49721: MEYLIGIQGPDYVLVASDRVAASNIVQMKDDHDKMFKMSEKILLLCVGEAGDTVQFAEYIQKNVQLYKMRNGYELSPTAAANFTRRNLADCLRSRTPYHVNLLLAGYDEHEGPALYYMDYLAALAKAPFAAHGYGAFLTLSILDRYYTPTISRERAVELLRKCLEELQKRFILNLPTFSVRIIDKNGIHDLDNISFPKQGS

[1] = compound: C/C(=N\NC(=O)C1=CC(=CC=C1)S(=O)(=O)N2CCOCC2)/C3=C(C=CC(=C3)Cl)O
Summary of the method: as §1

[2] = compound: C1=CC(=C(C=C1Cl)C2=NC3=NC=CN=C3C(=N2)NC4=CC=NC=C4)F
Summary of the method: as §1

[3] = compound: C1=CC(=CC=C1C2=NC3=C(N2)C=C(C=C3)C(=O)N)OC4=CC=C(C=C4)Cl
Summary of the method: as §1

[4] = compound: C1=CC2=C(C=CC(=C2)/C=C\3/C(=O)NC(=NCC4=CC=CS4)S3)N=C1
Summary of the method: as §1

[5] = compound: C1=CC2=NC=CN=C2C=C1/C=C/3\C(=O)NC(=O)S3
Summary of the method: as §1

[6] = compound: C1=CC=C(C=C1)C2=NC(=C(N2)C3=CC=NC=C3)C4=CC(=C(C=C4)Cl)O
Summary of the method: as §1

[7] = compound: C1=CC=C2C(=C1)C3=NNC4=CC=CC(=C43)C2=O
Summary of the method: as §1

[8] = compound: C1CCN(C1)C(=O)NC2=CC=CC(=C2)NC3=NC=C(C(=N3)NCCC4=CN=CN4)Br
Summary of the method: as §1

[9] = compound: C1CN(CCC1(CC2=CC=C(C=C2)Cl)N)C3=NC=NC4=C3C=CN4
Summary of the method: as §1

IRAK-1-4 Inhibitor I = compound: C1COCCN1CCN2C3=CC=CC=C3N=C2NC(=O)C4=CC(=CC=C4)[N+](=O)[O-] [IRAK-1-4 Inhibitor I]
Summary of the method: as §1

ibrutinib = compound: C=CC(=O)N1CCC[C@@H](n2nc(-c3ccc(Oc4ccccc4)cc3)c3c(N)ncnc32)C1 [ibrutinib]
Summary of the method: as §1

[10] = compound: CC(=O)c1cnc2ccc(-c3cc(Cl)c(O)c(Cl)c3)nc2c1N[C@H]1CC[C@H](CN(C)C)CC1
Summary of the method: as §1

ralimetinib = compound: CC(C)(C)Cn1c(N)nc2ccc(-c3[nH]c(C(C)(C)C)nc3-c3ccc(F)cc3)nc21 [ralimetinib]
Summary of the method: as §1

[11] = compound: CC(C)(O)CC(=O)NCCn1ccc2ncnc(Nc3ccc(Oc4cccc(C(F)(F)F)c4)c(Cl)c3)c21
Summary of the method: as §1

[12] = compound: CC(C)C1=C2N=C(C=C(N2N=C1)NCC3=CC=CC=C3)NCCCCCCN
Summary of the method: as §1

[13] = compound: CC(C)C[C@@H](C=O)NC(=O)[C@H](CC(C)C)NC(=O)[C@H](CC(C)C)NC(=O)OCc1ccccc1
Summary of the method: as §1

pinometostat = compound: CC(C)N(C[C@H]1O[C@@H](n2cnc3c(N)ncnc32)[C@H](O)[C@@H]1O)[C@H]1C[C@@H](CCc2nc3cc(C(C)(C)C)ccc3[nH]2)C1 [pinometostat]
Summary of the method: as §1

[14] = compound: CC1=C(C(CC(=O)N1)C2=CC=C(C=C2)C(F)(F)F)C(=O)NC3=C(C=C4C(=C3)C=NN4)F
Summary of the method: as §1

[15] = compound: CC1=C(C2=C(C=C1)C(=O)C3=CC=CC=C3N2CCCN)C
Summary of the method: as §1

Measured: log2 fold change

PYCARD (UniProt Q9ULZ3)
inactive: erlotinib 0.054 | [1] 0.033 | [2] 0.011 | [3] 0.001 | [4] 0.015 | [5] 0.007 | [6] -0.048 | [7] -0.053 | [8] -0.046 | [9] 0.022 | IRAK-1-4 Inhibitor I -0.087 | ibrutinib 0.022 | [10] -0.021 | ralimetinib -0.044 | [11] -0.144 | [12] -0.014 | [13] -0.082 | pinometostat -0.123 | [14] 0.037 | [15] 0.078

PXN (UniProt P49023)
inactive: erlotinib -0.025 | [1] -0.044 | [2] 0.064 | [3] 0.028 | [4] -0.078 | [5] 0.053 | [6] 0.036 | [7] -0.038 | [8] -0.049 | [9] 0.043 | IRAK-1-4 Inhibitor I 0.004 | ibrutinib 0.057 | [10] 0.017 | ralimetinib -0.007 | [11] -0.047 | [12] 0.086 | [13] 0.024 | pinometostat -0.069 | [14] 0.058 | [15] -0.037

PSMG2 (UniProt Q969U7)
inactive: erlotinib -0.031 | [1] 0.025 | [2] 0.047 | [3] -0.02 | [4] 0 | [5] 0.02 | [6] -0.064 | [7] 0.039 | [8] -0.01 | [9] 0.016 | IRAK-1-4 Inhibitor I 0.071 | ibrutinib 0.002 | [10] -0.001 | ralimetinib 0.001 | [11] -0.001 | [12] 0.028 | [13] -0.014 | pinometostat -0.021 | [14] 0.034 | [15] 0.015

PURB (UniProt Q96QR8)
inactive: erlotinib -0.106 | [1] -0.123 | [2] -0.534 | [3] 0.016 | [4] -0.023 | [5] -0.014 | [6] -0.212 | [7] -0.024 | [8] 0.058 | [9] -0.251 | IRAK-1-4 Inhibitor I -0.182 | ibrutinib 0.076 | [10] 0.047 | ralimetinib 0.014 | [11] 0.147 | [12] 0.101 | [13] 0.095 | pinometostat 0.221 | [14] 0.042 | [15] -0.636

QPRT (UniProt Q15274)
inactive: erlotinib 0.035 | [1] 0.005 | [2] 0.057 | [3] 0.011 | [4] 0.04 | [5] 0.004 | [6] 0.048 | [7] -0.029 | [8] -0.015 | [9] 0.033 | IRAK-1-4 Inhibitor I 0.016 | ibrutinib 0.006 | [10] 0.008 | ralimetinib -0.043 | [11] 0.004 | [12] 0.048 | [13] -0.042 | pinometostat -0.027 | [14] 0.019 | [15] 0

PSMA5 (UniProt P28066)
inactive: erlotinib -0.057 | [1] -0.028 | [2] 0.026 | [3] -0.008 | [4] -0.036 | [5] -0.004 | [6] 0.027 | [7] 0.009 | [8] 0.007 | [9] 0.019 | IRAK-1-4 Inhibitor I -0.009 | ibrutinib 0.01 | [10] 0.031 | ralimetinib 0.007 | [11] 0.027 | [12] 0.087 | [13] -0.073 | pinometostat -0.031 | [14] 0.011 | [15] 0

PWP1 (UniProt Q13610)
inactive: erlotinib -0.201 | [1] -0.183 | [2] -0.541 | [3] 0.079 | [4] -0.132 | [5] 0.028 | [6] -0.043 | [7] -0.029 | [8] 0.001 | [9] -0.217 | IRAK-1-4 Inhibitor I -0.21 | ibrutinib 0.132 | [10] 0.299 | ralimetinib 0.277 | [11] 0.084 | [12] -0.099 | [13] 0.063 | pinometostat 0.418 | [14] 0.081 | [15] -0.891

PSMF1 (UniProt Q92530)
inactive: erlotinib 0.083 | [1] 0.002 | [2] -0.013 | [3] -0.012 | [4] 0.099 | [5] -0.012 | [6] 0.02 | [7] -0.007 | [8] 0.061 | [9] 0.027 | IRAK-1-4 Inhibitor I 0.057 | ibrutinib 0.004 | [10] -0.015 | ralimetinib -0.014 | [11] 0 | [12] 0.02 | [13] -0.008 | pinometostat -0.047 | [14] 0.016 | [15] 0.026

3 neighbouring records already listed:
PSMA5 (UniProt P28066)
inactive: erlotinib -0.057 | [1] -0.028 | [2] 0.026 | [3] -0.008 | [4] -0.036 | [5] -0.004 | [6] 0.027 | [7] 0.009 | [8] 0.007 | [9] 0.019 | IRAK-1-4 Inhibitor I -0.009 | ibrutinib 0.01 | [10] 0.031 | ralimetinib 0.007 | [11] 0.027 | [12] 0.087 | [13] -0.073 | pinometostat -0.031 | [14] 0.011 | [15] 0

PWP1 (UniProt Q13610)
inactive: erlotinib -0.201 | [1] -0.183 | [2] -0.541 | [3] 0.079 | [4] -0.132 | [5] 0.028 | [6] -0.043 | [7] -0.029 | [8] 0.001 | [9] -0.217 | IRAK-1-4 Inhibitor I -0.21 | ibrutinib 0.132 | [10] 0.299 | ralimetinib 0.277 | [11] 0.084 | [12] -0.099 | [13] 0.063 | pinometostat 0.418 | [14] 0.081 | [15] -0.891

PSMF1 (UniProt Q92530)
inactive: erlotinib 0.083 | [1] 0.002 | [2] -0.013 | [3] -0.012 | [4] 0.099 | [5] -0.012 | [6] 0.02 | [7] -0.007 | [8] 0.061 | [9] 0.027 | IRAK-1-4 Inhibitor I 0.057 | ibrutinib 0.004 | [10] -0.015 | ralimetinib -0.014 | [11] 0 | [12] 0.02 | [13] -0.008 | pinometostat -0.047 | [14] 0.016 | [15] 0.026

Further results:

PTGES2 (UniProt Q9H7Z7)
inactive: erlotinib 0.009 | [1] 0.046 | [2] 0.027 | [3] -0.002 | [4] 0.007 | [5] 0.016 | [6] 0.02 | [7] 0.012 | [8] 0.006 | [9] 0.033 | IRAK-1-4 Inhibitor I 0.034 | ibrutinib 0.025 | [10] -0.006 | ralimetinib -0.043 | [11] 0.035 | [12] -0.02 | [13] 0.021 | pinometostat -0.067 | [14] -0.024 | [15] -0.002

PSMA7 (UniProt O14818)
inactive: erlotinib -0.102 | [1] -0.02 | [2] 0.009 | [3] 0.019 | [4] -0.042 | [5] -0.003 | [6] -0.063 | [7] 0.018 | [8] 0.019 | [9] 0.026 | IRAK-1-4 Inhibitor I 0.006 | ibrutinib -0.021 | [10] 0.071 | ralimetinib -0.004 | [11] 0.097 | [12] 0.078 | [13] -0.052 | pinometostat 0.001 | [14] 0.017 | [15] -0.011

PTMS (UniProt P20962)
inactive: erlotinib 0.035 | [1] -0.021 | [2] 0.082 | [3] -0.012 | [4] -0.067 | [5] 0.068 | [6] -0.008 | [7] 0.096 | [8] -0.042 | [9] 0.034 | IRAK-1-4 Inhibitor I 0 | ibrutinib -0.002 | [10] 0.037 | ralimetinib 0.002 | [11] -0.009 | [12] 0.08 | [13] -0.023 | pinometostat -0.068 | [14] 0.015 | [15] -0.011

PSMA1 isoform 2 (UniProt P25786)
inactive: erlotinib -0.057 | [1] -0.054 | [2] -0.012 | [3] -0.025 | [4] -0.078 | [5] 0.007 | [6] -0.002 | [7] -0.008 | [8] 0.02 | [9] 0.007 | IRAK-1-4 Inhibitor I 0.002 | ibrutinib -0.003 | [10] 0.07 | ralimetinib 0.007 | [11] 0.052 | [12] 0.108 | [13] -0.143 | pinometostat 0.003 | [14] 0.056 | [15] -0.062

PSMA6 (UniProt P60900)
inactive: erlotinib -0.091 | [1] -0.025 | [2] 0.01 | [3] 0.007 | [4] -0.004 | [5] -0.008 | [6] 0.037 | [7] -0.028 | [8] 0.028 | [9] 0.024 | IRAK-1-4 Inhibitor I 0.003 | ibrutinib 0.012 | [10] 0.079 | ralimetinib -0.002 | [11] 0.029 | [12] 0.071 | [13] -0.134 | pinometostat -0.013 | [14] 0.053 | [15] -0.015

PSMB3 (UniProt P49720)
inactive: erlotinib -0.066 | [1] -0.028 | [2] 0.055 | [3] 0.045 | [4] -0.075 | [5] 0.002 | [6] -0.012 | [7] 0.011 | [8] 0.017 | [9] 0.075 | IRAK-1-4 Inhibitor I -0.02 | ibrutinib 0.011 | [10] 0.086 | ralimetinib -0.031 | [11] 0.046 | [12] 0.122 | [13] -0.147 | pinometostat 0.027 | [14] 0.108 | [15] -0.067

PSME1 (UniProt Q06323)
inactive: erlotinib -0.012 | [1] 0.035 | [2] 0.099 | [3] -0.024 | [4] -0.013 | [5] 0.031 | [6] -0.013 | [7] 0.032 | [8] 0 | [9] 0.034 | IRAK-1-4 Inhibitor I 0.028 | ibrutinib -0.039 | [10] -0.013 | ralimetinib -0.085 | [11] -0.026 | [12] -0.002 | [13] -0.063 | pinometostat -0.037 | [14] -0.019 | [15] -0.013

PSMB2 (UniProt P49721)
inactive: erlotinib -0.076 | [1] -0.032 | [2] -0.003 | [3] -0.02 | [4] -0.024 | [5] 0.063 | [6] 0.075 | [7] 0.019 | [8] 0.003 | [9] 0.006 | IRAK-1-4 Inhibitor I -0.039 | ibrutinib -0.009 | [10] 0.052 | ralimetinib 0.001 | [11] -0.047 | [12] 0.062 | [13] -0.086 | pinometostat -0.007 | [14] 0.058 | [15] 0.013

Reference: the supplement of paper PMC10849652
